Data as given in PubChem BioAssay AID493246 (Drosophila RNAi Screening Center, 2011).

Purpose: 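Genome-wide search for dsRNAs that reduce cell number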 (primary screen)
System: Drosophila Kc and S2R+ cells
Knock-down reagent: long dsRNA against Drosophila genes
Read-out: 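Raw, unnormalised count of remaining cells in each well; per-plate z-scores of cell number underlie the calls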
Scale: Kc cell number and S2R+ cell number: higher = more cells remaining
Active means: 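Counted as a hit if cell number falls by a z-score of at least 3 within its plate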
In all, the deposit lists about 21,000 reagents; shown is an unselected part of those with a known target gene and a result. Of all reagents, 429 (2%) got an active call. 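Values are raw and not normalised between plates; calls rest on per-plate z-scores that were not deposited.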 Entries without a mark were called inactive. Reagents against one gene are numbered here. A plus sign joins genes that one reagent is predicted to hit. Reagent sequences are not shown. Not given: the amount of reagent, the time to read-out.

With vig2, how do the results read?
Kc cell number, rep 1: 1.57e6; Kc cell number, rep 2: 1.50e6; S2R+ cell number, rep 1: 1.20e6; S2R+ cell number, rep 2: 1.29e6

What is on record for CG14314?
Kc cell number, rep 1: 1.42e6; Kc cell number, rep 2: 1.34e6; S2R+ cell number, rep 1: 1.03e6; S2R+ cell number, rep 2: 1.14e6

How did the screen score CG7548?
Kc cell number, rep 1: 1.25e6; Kc cell number, rep 2: 1.17e6; S2R+ cell number, rep 1: 1.17e6; S2R+ cell number, rep 2: 1.17e6

With Uch-L5, what was measured?
Kc cell number, rep 1: 1.26e6; Kc cell number, rep 2: 1.41e6; S2R+ cell number, rep 1: 1.25e6; S2R+ cell number, rep 2: 1.22e6

Which result is listed for CG4194?
Kc cell number, rep 1: 5.12e5; S2R+ cell number, rep 1: 8.09e5

With Pgls, what was measured?
Kc cell number, rep 1: 1.57e6; Kc cell number, rep 2: 1.57e6; S2R+ cell number, rep 1: 1.07e6; S2R+ cell number, rep 2: 1.22e6

With CG1161, what does the deposit list?
Kc cell number, rep 1: 7.77e5 (active); Kc cell number, rep 2: 8.04e5; S2R+ cell number, rep 1: 7.25e5; S2R+ cell number, rep 2: 7.79e5

What did the screen give for Idi?
Kc cell number, rep 1: 1.65e6; Kc cell number, rep 2: 1.64e6; S2R+ cell number, rep 1: 1.29e6; S2R+ cell number, rep 2: 1.34e6

What did the screen give for CG10139?
Kc cell number, rep 1: 1.41e6; Kc cell number, rep 2: 1.47e6; S2R+ cell number, rep 1: 1.19e6; S2R+ cell number, rep 2: 1.23e6

With Alg10, what does the deposit list?
Kc cell number, rep 1: 1.35e6; Kc cell number, rep 2: 1.47e6; S2R+ cell number, rep 1: 1.40e6; S2R+ cell number, rep 2: 1.50e6

How did the screen score Syx13?
Kc cell number, rep 1: 1.17e6; Kc cell number, rep 2: 1.21e6; S2R+ cell number, rep 1: 1.21e6; S2R+ cell number, rep 2: 1.29e6

Which result is listed for stan #1?
Kc cell number, rep 1: 5.39e5 (active); Kc cell number, rep 2: 7.75e5; S2R+ cell number, rep 1: 6.26e5; S2R+ cell number, rep 2: 7.39e5

What is on record for stan #2?
Kc cell number, rep 1: 1.52e6; Kc cell number, rep 2: 1.52e6; S2R+ cell number, rep 1: 1.30e6; S2R+ cell number, rep 2: 1.42e6

For TMEM216 + CG11760, how do the results read?
Kc cell number, rep 1: 1.74e6; Kc cell number, rep 2: 1.85e6; S2R+ cell number, rep 1: 1.48e6; S2R+ cell number, rep 2: 1.48e6

With CG7218, what was measured?
Kc cell number, rep 1: 1.59e6; Kc cell number, rep 2: 1.62e6; S2R+ cell number, rep 1: 1.30e6; S2R+ cell number, rep 2: 1.27e6

How did the screen score CG5611?
Kc cell number, rep 1: 1.69e6; Kc cell number, rep 2: 1.74e6; S2R+ cell number, rep 1: 1.03e6; S2R+ cell number, rep 2: 1.17e6

For Spn100A, what does the deposit list?
Kc cell number, rep 1: 5.50e5; S2R+ cell number, rep 1: 8.17e5

What is on record for eIF5B #1?
Kc cell number, rep 1: 1.57e6; Kc cell number, rep 2: 1.52e6; S2R+ cell number, rep 1: 9.64e5; S2R+ cell number, rep 2: 1.34e6

How did the screen score eIF5B #2?
Kc cell number, rep 1: 1.84e6; Kc cell number, rep 2: 1.75e6; S2R+ cell number, rep 1: 9.65e5; S2R+ cell number, rep 2: 1.32e6

Which result is listed for gnu?
Kc cell number, rep 1: 1.51e6; Kc cell number, rep 2: 1.59e6; S2R+ cell number, rep 1: 1.36e6; S2R+ cell number, rep 2: 1.37e6

For CG14154, what was measured?
Kc cell number, rep 1: 1.46e6; Kc cell number, rep 2: 1.45e6; S2R+ cell number, rep 1: 1.24e6; S2R+ cell number, rep 2: 1.27e6

What is on record for CG32112?
Kc cell number, rep 1: 1.53e6; Kc cell number, rep 2: 1.52e6; S2R+ cell number, rep 1: 1.14e6; S2R+ cell number, rep 2: 1.30e6

For tw, how do the results read?
Kc cell number, rep 1: 5.34e5; S2R+ cell number, rep 1: 8.86e5

With CG10834, how do the results read?
Kc cell number, rep 1: 1.67e6; Kc cell number, rep 2: 1.69e6; S2R+ cell number, rep 1: 1.21e6; S2R+ cell number, rep 2: 2.97e5

What did the screen give for CG1924?
Kc cell number, rep 1: 1.64e6; Kc cell number, rep 2: 1.71e6; S2R+ cell number, rep 1: 1.10e6; S2R+ cell number, rep 2: 1.25e6

For Spt, how do the results read?
Kc cell number, rep 1: 1.77e6; Kc cell number, rep 2: 1.75e6; S2R+ cell number, rep 1: 1.38e6; S2R+ cell number, rep 2: 1.56e6

Which result is listed for Adat1?
Kc cell number, rep 1: 1.50e6; Kc cell number, rep 2: 1.53e6; S2R+ cell number, rep 1: 1.24e6; S2R+ cell number, rep 2: 1.39e6

Records listed so far whose gene name starts with E or e (2):
eIF5B #1: Kc cell number, rep 1 = 1.57e6; Kc cell number, rep 2 = 1.52e6; S2R+ cell number, rep 1 = 9.64e5; S2R+ cell number, rep 2 = 1.34e6
eIF5B #2: Kc cell number, rep 1 = 1.84e6; Kc cell number, rep 2 = 1.75e6; S2R+ cell number, rep 1 = 9.65e5; S2R+ cell number, rep 2 = 1.32e6
